Consider 15 compounds from patent US6492563B2, “Fragrance precursors” (Givaudan SA, priority 2000, dated 2002).

Each structure is given as a SMILES string.

The nature of the data set: Spray tests: release on cotton towels upon irradiation with a tanning lamp, evaluated by trained panel of perfumers. Further details: key: 0: very weak; +: weak; ++: medium; +++: strong. To be noted: cotton towel, after irradiation with tanning lamp; for Fragrance Target (perception): ester (III) / Fragrance Target (perception): aryl ketone (II): 45-75 μg/g cotton; for Fragrance Target (perception): ester (III): released ester named in cell; for Fragrance Target (perception): aryl ketone (II): released ketone named in cell. The procedure: 1 g of an approximately 0.2% phenacyl acetal (I) solution in ethanol was evenly sprayed on a Terry towel (white cotton towel, 25 cm ×25 cm, 45 g), corresponding to 45-75 μg/g cotton. The sprayed towels were allowed to dry in a dark and odorless place. When dry, the towels were irradiated for a few seconds up to a few minutes with a tanning lamp (Osram Ultra-Vitalux®, 300 W; at a distance of 50 cm, the light has approximately six to seven times the effect of the natural sunlight at noon on a sea-side mid-summer day). The evaluation was done by a trained panel of perfumers before and after irradiation. Before irradiation, the towels were judged to be odorless.

Consider `CCOC(C)OCC(=O)c1ccc(OC)cc1` (stereo not drawn) [compound 1, 2-(1-Ethoxy-ethoxy)-1-(4-methoxy-phenyl)-ethanone], for which the “Fragrance Target (perception): ester (III)” value (“Fragrance Target … (III)” below) was “ethyl acetate (0)”, the “Fragrance Target (perception): aryl ketone (II)” value (“Fragrance Target … (II)” below) is given as “acetanisole (++)” and the Global appreciation result is “+”.
`COc1ccc(C(=O)COC(C)OCCc2ccccc2)cc1` (stereo not drawn) [compound 2, 1-(4-Methoxy-phenyl)-2-(1-phenethyloxy-ethoxy)-ethanone]: the “Fragrance Target … (III)” value is given as “phenethyl acetate (+++)”, the “Fragrance Target … (II)” value is “acetanisole (++)” and the Global appreciation entry is given as “+++”.
The matching figures for `CC/C=C\CCOC(C)OCC(=O)c1ccc(OC)cc1` (stereo not drawn) [compound 3, 2-(1-Hex-3(Z)-enyloxy-ethoxy)-1-(4-methoxy-phenyl)-ethanone]: “cis-3-hexenyl acetate (++)”, “acetanisole (++)” and “++”.
The like results for `COc1ccc(C(=O)COC(C)OCCC(C)CC(C)(C)C)cc1` (stereo not drawn) [compound 4, 1-(4-Methoxy-phenyl)-2-[1-(3,5,5-trimethyl-hexyloxy)-ethoxyl]-ethanone] were, in that order, “nonanyl acetate (+)”, “acetanisole (++)” and “+”.
On to `CCCCCCOC(C)OCC(=O)c1ccc(OC)cc1` (stereo not drawn) [compound 5, 2-(1-Hexyloxy-ethoxy)-1-(4-methoxy-phenyl)-ethanone], for which the “Fragrance Target … (III)” value is on record as “hexyl acetate (++)”, the “Fragrance Target … (II)” value was “acetanisole (++)” and the Global appreciation result was “++”.
Regarding `COc1ccc(C(=O)COC(C)OCCCc2ccccc2)cc1` (stereo not drawn) [compound 6, 1-(4-Methoxy-phenyl)-2-[1-(3-phenyl-propoxy)-ethoxy]-ethanone], the “Fragrance Target … (III)” value is listed as “phenylpropyl acetate (++)”, the “Fragrance Target … (II)” value is given as “acetanisole (++)” and the Global appreciation result is listed as “++”.
`COc1ccc(C(=O)COC(C)OCCC(C)CCC=C(C)C)cc1` (stereo not drawn) [compound 7, 2-[1-(3,7-Dimethyl-oct-6-enyloxy)-ethoxy]-1-(4-methoxy-phenyl)-ethanone]: the “Fragrance Target … (III)” value was “citronellyl acetate (+)”, the “Fragrance Target … (II)” value is reported as “acetanisole (++)” and the Global appreciation result was “++”.
The like results for `CCCCCCOC(C)OCC(=O)c1cc2c(cc1C)C(C)(C)C(C)CC2(C)C` (stereo not drawn) [compound 8, 1-(3,5,5,6,8,8-Hexamethyl-5,6,7,8-tetrahydro-naphthalen-2-yl)-2-(1-hexyloxy-ethoxy)-ethanone] were, in that order, “hexyl acetate (+++)”, “Fixolide ® (++)” and “+++”.
The matching figures for `CC/C=C\CCOC(C)OCC(=O)c1cc2c(cc1C)C(C)(C)C(C)CC2(C)C` (stereo not drawn) [compound 9, 1-(3,5,5,6,8,8-Hexamethyl-5,6,7,8-tetrahydro-naphthalen-2-yl)-2-(1-hex-3(Z)-enyloxy-ethoxy)-ethanone]: “cis-3-hexenyl acetate (+++)”, “Fixolide ® (++)” and “+++”.
The matching figures for `CCOC(C)OCC(=O)c1cc2c(cc1C)C(C)(C)C(C)CC2(C)C` (stereo not drawn) [compound 10, 2-(1-Ethoxy-ethoxy)-1-(3,5,5,6,8,8-hexamethyl-5,6,7,8-tetrahydro-naphthalen-2-yl)-ethanone]: “ethyl acetate (0)”, “Fixolide ® (++)” and “++”.
Regarding `CCCCCCOC(C)OCC(=O)c1ccc2ccccc2c1` (stereo not drawn) [compound 11, 2-(1-Hexyloxy-ethoxy)-1-naphthalen-2-yl-ethanone], the “Fragrance Target … (III)” value was “hexyl acetate (++)”, the “Fragrance Target … (II)” value is reported as “Oranger Crystals ® (++)” and the Global appreciation result is “++”.
The like results for `CC(C)=CCCC(C)CCOC(C)OCC(=O)c1ccc2ccccc2c1` (stereo not drawn) [compound 12, 2-[1-(3,7-Dimethyl-oct-6-enyloxy)-ethoxy-]1-naphthalen-2-yl-ethanone] were, in that order, “citronellyl acetate (+)”, “Oranger Crystals ® (++)” and “++”.
On to `CCC(C)(CCCC(C)C)OC(C)OCC(=O)c1ccc2ccccc2c1` (stereo not drawn) [compound 13, 2-[1-(1-Ethyl-1,5-dimethyl-hexyloxy)-ethoxy]-1-naphtalen-2-yl-ethanone], for which the “Fragrance Target … (III)” value is “tetrahydro linalyl acetate (++)”, the “Fragrance Target … (II)” value was “Oranger Crystals ® (++)” and the Global appreciation result is listed as “+++”.
The matching figures for `CC(OCC(=O)c1ccc2ccccc2c1)OC1CCC(C(C)(C)C)CC1` (stereo not drawn) [compound 14, 2-[1-(4-t-Butyl-cyclohexyloxy)-ethoxy]-1-naphtalen-2-yl-ethanone]: “t-butyl-cyclohexyl acetate (+)”, “Oranger Crystals ® (++)” and “+”.
The matching figures for `COc1ccc(C(=O)COC(Cc2ccccc2)OC)cc1` (stereo not drawn) [compound 15, 1-(4-Methoxy-phenyl)-2-(1-methoxy-2-phenyl-ethoxy)-ethanone]: “methyl phenyl acetate (+)”, “acetanisole (++)” and “+”.
